These are yes or no findings as the source states them, for the method shown.

For the assay, the target named is NicA2 residues 21 to 482 [NicA2(21–482)] (Pseudomonas putida S16 (DSM 28022)) (UniProt F8G0P2). The experiment in a line: SEC; Superdex 200 gel filtration; buffer 25 mM Tris-HCl (pH 8.0), 150 mM NaCl, 5 mM DTT; elution compared with molecular weight markers; both purified.

B1: NicA2 residues 21 to 482 [NicA2(21–482)] (enzyme, UniProt F8G0P2 21-482)
chain: AVVTAGVAGLGAIDAASATQKTNRASTVKGGFDYDVVVVGGGFAGATAARECGLQGYRTLLLEARSRLGGRTFTSRFAGQEIEFGGAWVHWLQPHVWAEMQRYGLGVVEDPLTNLDKTLIMYNDGSVESISPDEFGKNIRIAFEKLCHDAWEVFPRPHEPMFTERARELDKSSVLDRIKTLGLSRLQQAQINSYMALYAGETTDKFGLPGVLKLFACGGWNYDAFMDTETHYRIQGGTIGLINAMLTDSGAEVRMSVPVTAVEQVNGGVKIKTDDDEIITAGVVVMTVPLNTYKHIGFTPALSKGKQRFIKEGQLSKGAKLYVHVKQNLGRVFAFADEQQPLNWVQTHDYSDELGTILSITIARKETIDVNDRDAVTREVQKMFPGVEVLGTAAYDWTADPFSLGAWAAYGVGQLSRLKDLQAAEGRILFAGAETSNGWHANIDGAVESGLRAGREVKQLLS
On to B1, for which the binding result is “no binding”.

The record behind these values is paper PMC7468206, “Molecular Deceleration Regulates Toxicant Release to Prevent Cell Damage in Pseudomonas putida S16 (DSM 28022)” (mBio, 2020).
